Measurements reported in patent publication US5859191 (dated 1999).

Assay: general procedure: Fmoc solid-phase peptide synthesis; Rink Amide MBHA resin (0.55 mmol/g substitution); HBTU in 0.4M NMM/DMF; double coupling with HATU after the N-methylated residue
Conditions: whole synthesis; for crude HPLC purity / final HPLC purity: 215 nm; for crude HPLC purity / isolated yield / final HPLC purity: scale of the general procedure 0.1 mmol; for isolated yield: on resin substitution; for crude mass: scale 0.1 mmol

Row | Substance | crude HPLC purity | isolated yield | crude mass | final HPLC purity
1 | (N--Me)SFLLRN | 85.5% | 66.5% of theory | 102.4 mg | –
2 | S(N--Me)FLLRN | 63.6% | 32.7% | 79.5 mg | 91%
3 | SFLLR(N--Me)N | 89.1% | 48.0% | 84 mg | >99%
